# Assay results: PubChem BioAssay AID1671190 (National Center for Advancing Translational Sciences (NCATS), 2021)
# Protein sequences, listed by entry. Tags and fused reporters are not part of them. Lines headed by an entry give the natural chain unless they say otherwise; changes in a name come on top.
# UniProt P18054: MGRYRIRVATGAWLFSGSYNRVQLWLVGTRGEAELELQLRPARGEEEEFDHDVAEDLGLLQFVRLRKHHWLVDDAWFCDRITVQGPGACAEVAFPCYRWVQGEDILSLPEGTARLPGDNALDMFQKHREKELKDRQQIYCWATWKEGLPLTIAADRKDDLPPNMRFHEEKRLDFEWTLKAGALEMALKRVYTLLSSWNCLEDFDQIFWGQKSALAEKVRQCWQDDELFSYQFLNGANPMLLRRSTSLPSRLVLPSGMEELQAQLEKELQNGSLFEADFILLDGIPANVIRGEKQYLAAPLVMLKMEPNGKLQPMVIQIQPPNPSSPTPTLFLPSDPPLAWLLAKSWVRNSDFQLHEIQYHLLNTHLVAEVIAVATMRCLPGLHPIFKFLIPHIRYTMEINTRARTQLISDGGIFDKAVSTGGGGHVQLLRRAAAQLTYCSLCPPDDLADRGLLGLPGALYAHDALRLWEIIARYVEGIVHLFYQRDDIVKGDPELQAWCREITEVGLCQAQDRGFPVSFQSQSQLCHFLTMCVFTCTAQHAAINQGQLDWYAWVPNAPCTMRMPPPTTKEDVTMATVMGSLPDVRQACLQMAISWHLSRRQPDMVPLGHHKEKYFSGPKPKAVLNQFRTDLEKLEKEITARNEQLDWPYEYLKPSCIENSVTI
# In all, about 580,000 compounds went through this assay and about 6,100 (1.1%) were called active. Inconclusive results, whose numbers are uncertain, are shown with a selection of clear calls. Calls come from the whole dose curve; as a rule, active = well fitted inhibition curve with a large enough effect; inconclusive = small, poorly fitted or top-dose-only effect, or another doubt; inactive = no such curve, though single readings can be large or run the other way. Potencies of inconclusive entries are doubtful fits and often do not repeat.
# Biological target: Polyunsaturated fatty acid lipoxygenase ALOX12 (Homo sapiens) (UniProt P18054)
# Assay: Primary qHTS assay for inhibitors of human arachidonate 12S-lipoxygenase (ALOX12): Round 2
# Conditions: purified 12hLO, xylenol orange hydroperoxide absorbance; activity change, negative = inhibition: at 108 µM (top of the series) unless noted
# How it was run: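 Purified human 12hLO (150 nM final) in 25 mM Hepes, 0.01% Triton X-100, pH 7.0 was preincubated 15 min at room temperature with compound. Then 40 uM arachidonic acid was added, 30 min. Hydroperoxide was read by Fe-XO absorbance ratio 573/405 nm.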
# % is set by controls: 0 for no effect and ±100 for the full control effect; potency is the fitted concentration of half-maximal effect.
SMILES,Potency,"activity change, negative = inhibition"
CCOc1ccc(-n2nnnc2CNC(=O)Nc2ccc3c(c2)OCO3)cc1,"inconclusive: 100 µM [inhibitor, single point]",
O=C(CN1CCCCC1c1nc2ccccc2s1)NC(=O)Nc1ccc2c(c1)OCO2 (stereo not given),,inactive: -4.62%
O=C(NCc1ccc(F)cc1)C1CCN(c2nc3ccccc3o2)CC1,"inconclusive: 50.1 µM [inhibitor, single point]",
N#CCCCN1C(=O)C(O)(CC(=O)c2ccc3c(c2)OCCO3)c2ccccc21 (stereo not given),"inconclusive: 39.8 µM [inhibitor, partial curve, poor fit]",
CC(C)(C)c1csc(NNC(=O)c2ccc(Cl)cc2)n1,"inconclusive: 56.2 µM [inhibitor, partial curve, poor fit]",
Cn1nnc(NC(=S)NC(=O)/C=C/c2ccco2)n1,"inconclusive: 2.24 µM [inhibitor, full curve, poor fit]",
CCOC(=O)c1c(C)sc2c1OC(N)=C(C#N)C21C(=O)N(Cc2cccc(F)c2)c2ccccc21 (stereo not given),,inactive: 41.3%
O=C(CC[C@@H]1CNC(=O)[C@@H]2C[C@H](NC(=O)Nc3cccc(Cl)c3)CN12)NCc1cccnc1,active: 44.7 µM,
Cc1ccc(S(=O)(=O)Nc2ccc(Nc3ccccc3)cc2)cc1,active: 17.8 µM,
O=C(NC(=S)Nc1ccccc1N1CCCCC1)c1ccc(F)cc1Cl,"inconclusive: 39.8 µM [inhibitor, partial curve]",
Cc1noc(CS(=O)(=O)Cc2ccccc2C)n1,"inconclusive: 141 µM [inhibitor, partial curve, poor fit]",
c1ccc(CNc2cc(-c3ccoc3)ncn2)cc1,"inconclusive: 44.7 µM [inhibitor, partial curve, poor fit]",
O=C(Nc1ccccc1)c1sccc1Oc1ccc([N+](=O)[O-])cc1F,"inconclusive: 39.8 µM [inhibitor, partial curve, poor fit]",
NC(=S)NC(c1ccccc1)c1ccncc1 (stereo not given),"inconclusive: 22.4 µM [inhibitor, partial curve, poor fit]",
COc1ccc(/C=C2\SC(=O)NC2=S)cc1OC,active: 39.8 µM,
Cc1cccc(C(=O)NCC(=O)N(C)Cc2ccc(-c3ccc(Cl)cc3)o2)c1,"inconclusive: 79.4 µM [inhibitor, single point]",
O=C(Nc1nc(-c2cccs2)cs1)c1cccc(S(=O)(=O)N2CCCCCC2)c1,"inconclusive: 15.8 µM [inhibitor, partial curve, poor fit]",
COc1ccc(C(=O)/C=C/Nc2ccc([N+](=O)[O-])cc2C)c(OC)c1,"inconclusive: 31.6 µM [inhibitor, partial curve, poor fit]",
CCC(c1nnnn1CCOC)N(Cc1ccc(C)cc1)Cc1cc2cc(OC)ccc2[nH]c1=O (stereo not given),"inconclusive: 56.2 µM [inhibitor, single point]",
CCCCCc1ccc(-c2ccc(C3CCC(CCC)CC3)cc2)nc1 (stereo not given),,inactive: 32.2%
CCOC(=O)C1CCCN(C(=O)C2CCN(S(=O)(=O)c3cccs3)CC2)C1 (stereo not given),,inactive: 19.6%
Cc1cc(C)cc(N2C(=O)CC(Sc3ccccc3C(=O)O)C2=O)c1 (stereo not given),,inactive: 4.32%

# Quoted from the listing.
# O=C(CC[C@@H]1CNC(=O)[C@@H]2C[C@H](NC(=O)Nc3cccc(Cl)c3)CN12)NCc1cccnc1 – Potency: active: 44.7 µM
# N#CCCCN1C(=O)C(O)(CC(=O)c2ccc3c(c2)OCCO3)c2ccccc21 (stereo not given) – Potency: inconclusive: 39.8 µM [inhibitor, partial curve, poor fit]
# COc1ccc(/C=C2\SC(=O)NC2=S)cc1OC – Potency: active: 39.8 µM

# Following part

SMILES,Potency,"activity change, negative = inhibition"
O=C(CSc1n[nH]c(-c2ccccc2)n1)N1CCN(c2ccc(F)cc2)CC1,"inconclusive: 31.6 µM [inhibitor, partial curve, poor fit]",
CNS(=O)(=O)c1ccc(NCC2COc3ccccc3O2)c([N+](=O)[O-])c1 (stereo not given),"inconclusive: 141 µM [inhibitor, single point]",
Cc1ccc(S(=O)(=O)N(C)CC(=O)O/N=C(\N)c2ccc([N+](=O)[O-])cc2)cc1,"inconclusive: 126 µM [inhibitor, partial curve, poor fit]",
O=C(O)/C(=C\c1ccco1)NC(=O)c1ccco1,"inconclusive: 28.2 µM [inhibitor, partial curve, poor fit]",
CC(OC(=O)CSc1nc2ccccc2o1)C(=O)NC1(C#N)CCCCC1 (stereo not given),"inconclusive: 10 µM [inhibitor, partial curve, poor fit]",
CCNCc1ccc(-c2cccc(Cl)c2)o1,"inconclusive: 100 µM [inhibitor, partial curve, poor fit]",
O=C(CCn1cnc2onc(-c3ccc(F)cc3)c2c1=O)Nc1cccc(C(F)(F)F)c1,"inconclusive: 141 µM [inhibitor, partial curve, poor fit]",
Cc1cc(C)c(C)c(S(=O)(=O)Nc2ccccc2C(=O)NCCCn2ccnc2)c1C,,inactive: 4.44%
COc1ccc(-c2cc(N3CCC(NC(=O)c4ccc(F)cc4F)CC3)n[nH]2)cc1,,inactive: 43.6%
O=C(c1[nH]c(C(F)(F)F)nc1-c1ccccc1)N1CCC2(CC1)C(=O)NCN2c1ccccc1,"inconclusive: 35.5 µM [inhibitor, partial curve, poor fit]",
CC(=O)NC1CCN(CC(=O)Nc2nccs2)CC1,"inconclusive: 35.5 µM [inhibitor, partial curve, poor fit]",
Cn1cc([N+](=O)[O-])c(C(=O)n2cccn2)n1,"inconclusive: 39.8 µM [inhibitor, partial curve, poor fit]",
O=C(O)CNC(=O)c1cc(-c2ccccc2)nc2ccccc12,,inactive: 2.4%
O=C(C1CCN(Cc2ccco2)CC1)N1CCC2(CCCNC2=O)C1 (stereo not given),,inactive: 43.5%
CN(C)c1nc(=S)nc(NCc2ccccc2)[nH]1,"inconclusive: 79.4 µM [inhibitor, partial curve, poor fit]",
O=C(NN1C(=O)c2cc(Br)ccc2NC1c1cc(Br)cc(Br)c1O)c1ccncc1 (stereo not given),active: 50.1 µM,
COc1ccc(Nc2nc(N)c(C(=O)c3cc(C)ccc3C)s2)cc1,"inconclusive: 63.1 µM [inhibitor, partial curve, poor fit]",
Cc1nn(-c2ccccc2)c(Cl)c1C(=O)OC(C)C(=O)NC(=O)NC1CCCCC1 (stereo not given),"inconclusive: 0.708 µM [inhibitor, full curve, poor fit]",
Cc1ccc(C)c(N2CCN(CCCNC(=O)c3cnn(-c4cccc(Cl)c4)c3C3CCN(C(=O)OC(C)(C)C)CC3)CC2)c1,"inconclusive: 56.2 µM [inhibitor, partial curve, poor fit]",
CN(C)CCNC(=O)CCn1ccc2cc(S(=O)(=O)N3CCCCC3)ccc21,"inconclusive: 44.7 µM [inhibitor, partial curve, poor fit]",
CC(C)c1ccc(CNc2ccc([N+](=O)[O-])cn2)cc1,,inactive: -5.98%
O=C(O)c1ccc(NN=CC2=C(N3CCOCC3)/C(=C/c3ccccc3)CC2)cc1,"inconclusive: 89.1 µM [inhibitor, partial curve, poor fit]",

SMILES,Potency,"activity change, negative = inhibition"
CCc1cc(=O)oc2c3c(cc(OCC(=O)NCCCCCC(=O)O)c12)OC(C)(C)CC3,,inactive: -15.9%
COc1cc(C(=O)Oc2cccc(Nc3ncnc4ccccc34)c2)cc(OC)c1OC,,inactive: 5.97%
CC(=O)N1CC2(CCN(C(=O)CCC(=O)O)CC2)Cc2ccccc21,"inconclusive: 89.1 µM [inhibitor, single point]",
O=C(Nc1ccc(F)c(F)c1)c1cc(S(=O)(=O)NC2CCCC2)ccc1F,"inconclusive: 89.1 µM [inhibitor, partial curve, poor fit]",
CC[N+](C)(CC)CCC(c1ccccc1)C1CCCCC1 (stereo not given),"inconclusive: 112 µM [inhibitor, single point]",
N#Cc1ccc(C(=O)NCCCC2CCCC2)cc1,,inactive: -14.3%
Cc1cccc(N2CCN(CCCNc3ncnc4onc(-c5ccc(F)cc5)c34)CC2C)c1 (stereo not given),"inconclusive: 100 µM [inhibitor, partial curve, poor fit]",
O=C(c1ccco1)c1cn(CC(=O)N2CCCC2)c2ccccc12,,inactive: 1.42%
Cc1nc2cnc(N3CCN(C)CC3)nc2n(CCc2ccccc2)c1=O,"inconclusive: 35.5 µM [inhibitor, partial curve, poor fit]",
O=C(Nc1ccc(CN2CCOCC2)cc1)Nc1ccc2c(c1)OCCO2,,inactive: -7.07%
O=C(Nc1cccc(Cl)c1)N(Cc1cccc(O)c1)C1CCC(O)CC1 (stereo not given),"inconclusive: 0.794 µM [inhibitor, full curve, poor fit]",
O=S(=O)(c1ccc2nc(N3CCN(c4ccc(F)cc4)CC3)ccc2c1)N1CCOCC1,"inconclusive: 7.08 µM [inhibitor, partial curve, poor fit]",
O=c1[nH]c(N2CCOCC2)nc2c1CCN(Cc1cc(Cl)ccc1F)CC2,,inactive: 33.1%
CCCCc1ccc(NS(=O)(=O)c2ccc(C)c(C(=O)N3CCN(c4cccc(C)c4C)CC3)c2)cc1,"inconclusive: 6.85 µM [inhibitor, single point]",
Cc1c(/C(O)=C2/C(=O)C(=O)N(CCN3CCOCC3)C2c2cccs2)cnn1-c1ccccc1 (stereo not given),"inconclusive: 1.41 µM [inhibitor, full curve, poor fit]",
COC(=O)CCC(=O)NC(=S)Nc1cc(Cl)ccc1Cl,"inconclusive: 63.1 µM [inhibitor, partial curve, poor fit]",
Cc1ccc(-c2nc(C#N)c(N3CCN(C)CC3)o2)cc1,,inactive: -2.57%
C[n+]1nc(Nc2ccccc2)sc1-c1ccc(O)cc1,,inconclusive: -33.5% [inhibitor]
O=C(CCNS(=O)(=O)c1ccc2c(c1)CCN2C(=O)C1CC1)Nc1ccc(OC(F)(F)F)cc1,"inconclusive: 141 µM [inhibitor, single point]",
CCn1nc(C(=O)Nc2nc(C)cs2)c2ccccc2c1=O,"inconclusive: 56.2 µM [inhibitor, partial curve, poor fit]",
Cc1ccc2c(CN3CCCCCC3)cc(=O)oc2c1,"inconclusive: 39.8 µM [inhibitor, partial curve, poor fit]",
